Measured values taken from article PMC6527568.
No constants are given. Whether binding was seen depends on the method and setting. Binding seen in cells or lysates may run through a third protein. Binding can be weak; no strength is given. Sequences can lack the tags named with a protein.

Target: 2xMyc-tagged-Vtd (Drosophila)
Experiment: co-IP; extracts of S2 cells transfected with two tagged constructs; IP with anti-FLAG, anti-V5 or anti-Myc at 4 °C for 2 h, protein G beads; IP buffer 20 mM HEPES pH 7.4, 80 mM KCl, 0.2% NP-40

binding: binds
B1: V5-tagged-Tws (protein, UniProt P36872 1-499)
chain: MGRWGRQSPVLEPPDPQMQTTPPPPTLPPRTFMRQSSITKIGNMLNTAININGAKKPASNGEASWCFSQIKGALDDDVTDADIISCVEFNHDGELLATGDKGGRVVIFQRDPASKAANPRRGEYNVYSTFQSHEPEFDYLKSLEIEEKINKIRWLQQKNPVHFLLSTNDKTVKLWKVSERDKSFGGYNTKEENGLIRDPQNVTALRVPSVKQIPLLVEASPRRTFANAHTYHINSISVNSDQETFLSADDLRINLWHLEVVNQSYNIVDIKPTNMEELTEVITAAEFHPTECNVFVYSSSKGTIRLCDMRSAALCDRHSKQFEEPENPTNRSFFSEIISSISDVKLSNSGRYMISRDYLSIKVWDLHMETKPIETYPVHEYLRAKLCSLYENDCIFDKFECCWNGKDSSIMTGSYNNFFRVFDRNSKKDVTLEASRDIIKPKTVLKPRKVCTGGKRKKDEISVDCLDFNKKILHTAWHPEENIIAVAATNNLFIFQDKF
